Measurements taken from the supplement of paper PMC8866396.
± gives the standard deviation of the averaged measurements. The list shows a part of the results. Single values are uncertain here, since repeats match poorly.

What was measured:
IL-6-GFP PC-9GR = test: IL-6-GFP fluorescence relative to DMSO control (fraction of control); higher = more IL-6-GFP expression; details: compound concentration: 10 uM; treatment time: 48 h
Description: (§1)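 IL-6-GFP-overexpressing PC-9 and PC-9GR EGFR-mutant lung cancer cells (3000 cells/well, 96-well) were treated for 48 h with each compound of the Selleck L2000 library at 10 uM. IL-6-GFP fluorescence was read on a high-content screening system, and viability by CCK-8 absorbance on a parallel plate set. Each value was normalised as compound well / DMSO control well; two independent replicates.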

IL-6-GFP PC-9 = test: as above; details: compound concentration: 10 uM; treatment time: 48 h
Description: as §1

| Structure (SMILES) | IL-6-GFP fluorescence (IL-6-GFP PC-9GR) | IL-6-GFP fluorescence (IL-6-GFP PC-9) |
| --- | --- | --- |
| CN(N=O)C(=O)NC1C(O)OC(CO)C(O)C1O (configuration not stated) [Streptozotocin (STZ)] | 1.04 ± 0.052 | 1.11 ± 0.18 |
| CC(=O)Oc1ccccc1C(=O)O [Aspirin] | 0.926 ± 0.12 | 0.889 ± 0.26 |
| Cc1coc2c1C(=O)C(=O)c1c-2ccc2c(C)cccc12 [Tanshinone I] | 0.692 ± 0.18 | 0.856 ± 0.17 |
| Nc1nc(=O)c2c(CCc3ccc(C(=O)NC(CCC(=O)[O-])C(=O)[O-])cc3)c[nH]c2[nH]1.[Na+].[Na+] (configuration not stated) [Pemetrexed] | 0.884 ± 0.22 | 0.945 ± 0.053 |
| CN1CCC(=C2c3ccccc3CCc3sccc32)CC1.O=C(O)CC(O)C(=O)O [Pizotifen Malate] | 0.953 ± 0.11 | 1.1 ± 0.44 |
| O=c1cc[nH]c(=O)[nH]1 [Uracil] | 0.66 ± 0.21 | 0.966 ± 0.073 |
| CC12CCC(CC1=O)C2(C)C (configuration not stated) [Camphor] | 0.666 ± 0.24 | 0.866 ± 0.083 |
| Cc1cncc(CN2CCC(=C3c4ccc(Cl)cc4CCc4cccnc43)CC2)c1.O=C(O)/C=C/C(=O)O [Rupatadine Fumarate] | 0.926 ± 0.085 | 1.04 ± 0.33 |
| CCOC(=O)OC1(C(=O)OCCl)CCC2C3CCC4=CC(=O)C=CC4(C)C3C(O)CC21C (configuration not stated) [Loteprednol etabonate] | 0.634 ± 0.25 | 1.14 ± 0.27 |
| COc1cc2c(Oc3ccc4[nH]c(C)cc4c3F)ccnc2cc1OCC1(N)CC1.Cl.Cl [Anlotinib (AL3818) dihydrochloride] | 0.946 ± 0.23 | 0.784 ± 0.41 |
| CC(OC1OCCN(Cc2n[nH]c(=O)[nH]2)C1c1ccc(F)cc1)c1cc(C(F)(F)F)cc(C(F)(F)F)c1 (configuration not stated) [Aprepitant] | 1.03 ± 0.028 | 1.03 ± 0.17 |
